The experiment has as its system CD2F1 mice, L1210 leukemia ip, survival T/C. Briefly: NCI In Vivo Anticancer Drug Screen. Data for tumor model L1210 Leukemia (intraperitoneal) in CD2F1 (CDF1) mice. The conditions noted are these: higher T/C = longer survival. The procedure, abridged: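 Vehicle-treated tumor-bearing mice served as controls (C) for compound-treated mice (T). Reported figure is T divided by C.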

Where [1] appears, read: T/C endpoint: mean survival time, dose: 400.0 mg/kg/injection, schedule: Q01DX009 (ip), vehicle: saline with Tween-80.
The mark [2] stands for this setting: T/C endpoint: mean survival time, dose: 100.0 mg/kg/injection, schedule: Q01DX001 (ip), vehicle: saline with Tween-80.
The mark [3] stands for this setting: T/C endpoint: mean survival time, dose: 150.0 mg/kg/injection, schedule: Q01DX001 (ip), vehicle: other.
The mark [4] stands for this setting: T/C endpoint: mean survival time, dose: 300.0 mg/kg/injection, schedule: Q01DX001 (ip), vehicle: other.
The mark [5] stands for this setting: T/C endpoint: mean survival time, dose: 400.0 mg/kg/injection, schedule: Q01DX001 (ip), vehicle: saline.
The mark [6] stands for this setting: T/C endpoint: mean survival time, dose: 100.0 mg/kg/injection, schedule: Q04DX002 (ip), vehicle: saline with Tween-80.
[7] abbreviates: T/C endpoint: mean survival time, dose: 200.0 mg/kg/injection, schedule: Q04DX002 (ip), vehicle: saline with Tween-80.
Setting [8] is: T/C endpoint: mean survival time, dose: 400.0 mg/kg/injection, schedule: Q04DX002 (ip), vehicle: saline with Tween-80.
Setting [9] is: T/C endpoint: mean survival time, dose: 200.0 mg/kg/injection, schedule: Q01DX001 (ip), vehicle: saline.
Setting [10] is: T/C endpoint: mean survival time, dose: 400.0 mg/kg/injection, schedule: Q04DX003 (ip), vehicle: saline with Tween-80.

The list shows only some results of the screen, not a fair sample: it gathers tests that were run many times, whatever their T/C, doses with no T/C, and many T/C values between a quarter and a half above the control. Other doses and runs of a compound stand elsewhere. T/C gives the treated animals as a percentage of the vehicle group. Some entries give survivors of the animals treated and no T/C: the source holds a T/C of zero for them, seemingly a mark for toxic or unscored doses. Some doses without a T/C left all or most animals alive at the check, yet need not have been tolerated: the source hardly ever lists a survival T/C far under the control, and the zero likely stands for such cases as well. Counts of survivors are from the toxicity check (mostly the fifth day) where no day follows; animals may have died later. Schedule codes are those of the source, taken here to give the interval after Q, in days (D) or hours (H), and the number of doses after X. Where survival is the endpoint, the PubChem record calls one and a half times the control and up active, and a quarter to a half above the control has no call in these data; cut-offs in other NCI protocols can differ. Some entries hold several experiments; the values are given in rising order.

For the compound `COC(=O)c1ccccc1C=C(c1ccc([N+](=O)[O-])cc1)c1ccc([N+](=O)[O-])cc1`, the survivor count under setting [1] is 2 of 6.

Turning to `CN(C)N=C1CCC2(CC1)c1ccccc1-c1ccccc12`, the survivor count under setting [2] is reported as 6 of 6.

For `Cc1cc(C)c2ccc(Cl)nc2n1`, the survivor count is on record as 0 of 6 under setting [3] and 0 of 6 under setting [4].

As for `C#CC12CCCCN1CCC2` (stereo unspecified), the survivor count under setting [5] is 1 of 6.

With `COc1cc(OC)c(/C=C/c2cc[n+](C)c3ccccc23)c(OC)c1`, the survivor count by setting is: (T/C endpoint: mean survival time, dose: 6.25 mg/kg/injection, schedule: Q01DX009 (ip), vehicle: saline) 0 of 3; (T/C endpoint: mean survival time, dose: 12.5 mg/kg/injection, schedule: Q04DX002 (ip), vehicle: saline) 0 of 3; (T/C endpoint: mean survival time, dose: 25.0 mg/kg/injection, schedule: Q04DX002 (ip), vehicle: saline) 0 of 3; under setting [6], 0 of 3; under setting [7], 0 of 3; under setting [8], 0 of 3.

Take `CCOP(=O)(OCC)C1=C(SCC)C(F)(F)C(F)(F)C1(F)F`: the survivor count reads like this: under setting [3], 2 of 6; under setting [4], 0 of 6.

With `CCCCN(C)C(=O)Oc1cccc(NC(=O)OC)c1`, the survivor count under setting [1] is 3 of 6.

As for `CCCSc1ncnc2nc[nH]c12`, under “T/C endpoint: median survival time, dose: 250.0 mg/kg/injection, schedule: Q01DX009 (ip), vehicle: saline”, the survivor count is on record as 2 of 6.

With `COC(=O)c1cc(NC(=O)Nc2cc([N+](=O)[O-])ccc2Cl)cc(C(=O)OC)c1`, the survivor count under setting [9] was 6 of 6.

As for `Cc1cc(O)c(C(C)C)cc1N(C)C` (tested in a mixture with another compound), the survivor count runs as follows: (T/C endpoint: mean survival time, dose: 1.0 mg/kg/injection, schedule: Q04DX003 (ip), vehicle: saline) 2 of 6; (T/C endpoint: mean survival time, dose: 2.0 mg/kg/injection, schedule: Q01DX001 (ip), vehicle: saline) 0 of 6; (T/C endpoint: mean survival time, dose: 3.75 mg/kg/injection, schedule: Q01DX001 (ip), vehicle: saline) 0 of 6; (T/C endpoint: mean survival time, dose: 7.5 mg/kg/injection, schedule: Q01DX001 (ip), vehicle: saline) 0 of 6; (T/C endpoint: mean survival time, dose: 15.0 mg/kg/injection, schedule: Q01DX001 (ip), vehicle: saline) 0 of 6; (T/C endpoint: mean survival time, dose: 18.8 mg/kg/injection, schedule: Q01DX001 (ip), vehicle: saline) 0 of 6. The survivor count by setting is: (T/C endpoint: mean survival time, dose: 37.5 mg/kg/injection, schedule: Q01DX001 (ip), vehicle: saline) 0 of 6; (T/C endpoint: mean survival time, dose: 75.0 mg/kg/injection, schedule: Q01DX001 (ip), vehicle: saline) 0 of 6.

For the compound `Clc1ccc(C2c3ccccc3C[n+]3ccccc32)cc1` (stereo unspecified), the survivor count (T/C endpoint: mean survival time, dose: 50.0 mg/kg/injection, schedule: Q04DX003 (ip), vehicle: Klucel (hydroxypropylcellulose) (HPC)) was 1 of 6.

`CC(C)C1(C(C)C)OCCO1`: the survivor count under setting [10] is on record as 5 of 6.

For `COc1cc2c(cc1OC)C1c3cc(OC)c(OC)cc3CCN1CC2`, the survivor count by setting is: (T/C endpoint: mean survival time, dose: 50.0 mg/kg/injection, schedule: Q01DX009 (ip), vehicle: other) 1 of 6; (T/C endpoint: mean survival time, dose: 100.0 mg/kg/injection, schedule: Q01DX009 (ip), vehicle: other) 0 of 6; (T/C endpoint: mean survival time, dose: 200.0 mg/kg/injection, schedule: Q01DX009 (ip), vehicle: other) 0 of 6.

With `Cc1ccc2c(c1)n([O-])c1cc(Cl)ccc1[n+]2=O`, the T/C (T/C endpoint: median survival time, dose: 25.0 mg/kg/injection, schedule: Q01DX009 (ip), vehicle: saline with Tween-80) was 126 % of control and the T/C (T/C endpoint: median survival time, dose: 100.0 mg/kg/injection, schedule: Q01DX009 (ip), vehicle: saline with Tween-80) was 126 % of control.

In the case of `c1ccc2c[n+]3ccccc3cc2c1`, the survivor count (T/C endpoint: mean survival time, dose: 50.0 mg/kg/injection, schedule: Q04DX003 (ip), vehicle: saline) is on record as 3 of 6.

Regarding `O=S(=O)(OCCCCCOS(=O)(=O)c1cccnc1)c1cccnc1`, the T/C (T/C endpoint: mean survival time, dose: 20.0 mg/kg/injection, schedule: Q04DX002 (ip), vehicle: saline with Tween-80) was 130 % of control. In addition, the survivor count under setting [6] is 0 of 3, the survivor count under setting [7] was 0 of 3 and the survivor count under setting [8] is 0 of 3.

Consider `COc1ccc2c(c1)-c1c(ccc(OC)c1O)CC(c1ccccc1)[N+](C)(C)CC2` (stereo unspecified), for which the survivor count runs as follows: (T/C endpoint: mean survival time, dose: 100.0 mg/kg/injection, schedule: Q01DX001 (ip), vehicle: saline) 3 of 6; under setting [9], 3 of 6; under setting [5], 0 of 6.

`Oc1c(C(c2ccccc2)N2CCCCC2)ccc2ccccc12` (stereo unspecified): the survivor count under setting [1] is 2 of 6.

`CN(C)CCSc1cc(O)c2c(c1O)C(=O)c1ccccc1C2=O`: under “T/C endpoint: mean survival time, dose: 400.0 mg/kg/injection, schedule: Q01DX009 (ip), vehicle: water”, the survivor count is listed as 2 of 6.

For `[Cl][Dy]([Cl])[Cl]`, the survivor count (T/C endpoint: mean survival time, dose: 100.0 mg/kg/injection, schedule: Q01DX009 (ip), vehicle: saline with Tween-80) is given as 6 of 6.

On to `O=c1[nH]c(Cc2ccccc2)c(N=Nc2ccccc2)c(=O)[nH]1`, for which the survivor count under setting [2] was 6 of 6.

Turning to `CCOC(=O)CCC(NC(=O)c1ccc(N(CC)Cc2cnc3nc(N)nc(N)c3n2)cc1)C(=O)OCC` (stereo unspecified), the T/C by setting is: (T/C endpoint: mean survival time, dose: 0.39 mg/kg/injection, schedule: Q01DX009 (ip), vehicle: Klucel (hydroxypropylcellulose) (HPC)) 133 % of control; (T/C endpoint: mean survival time, dose: 0.78 mg/kg/injection, schedule: Q01DX009 (ip), vehicle: Klucel (hydroxypropylcellulose) (HPC)) 143 % of control; (T/C endpoint: mean survival time, dose: 1.56 mg/kg/injection, schedule: Q01DX009 (ip), vehicle: Klucel (hydroxypropylcellulose) (HPC)) 142 % of control; (T/C endpoint: mean survival time, dose: 3.12 mg/kg/injection, schedule: Q01DX009 (ip), vehicle: Klucel (hydroxypropylcellulose) (HPC)) 130 and 141 % of control. The survivor count is 3 of 6 (T/C endpoint: mean survival time, dose: 6.25 mg/kg/injection, schedule: Q01DX009 (ip), vehicle: Klucel (hydroxypropylcellulose) (HPC)); 6 of 6 (T/C endpoint: mean survival time, dose: 12.5 mg/kg/injection, schedule: Q01DX009 (ip), vehicle: Klucel (hydroxypropylcellulose) (HPC)); 3 of 6 (T/C endpoint: mean survival time, dose: 25.0 mg/kg/injection, schedule: Q01DX009 (ip), vehicle: Klucel (hydroxypropylcellulose) (HPC)); 1 of 4 (T/C endpoint: mean survival time, dose: 100.0 mg/kg/injection, schedule: Q01DX001 (ip), vehicle: Klucel (hydroxypropylcellulose) (HPC)); 1 of 5 (T/C endpoint: mean survival time, dose: 200.0 mg/kg/injection, schedule: Q01DX001 (ip), vehicle: Klucel (hydroxypropylcellulose) (HPC)); 1 of 5 (T/C endpoint: mean survival time, dose: 400.0 mg/kg/injection, schedule: Q01DX001 (ip), vehicle: Klucel (hydroxypropylcellulose) (HPC)).

For the compound `CCCCCCCC(=O)Nc1ncnc2c1ncn2C1OC(COC(C)=O)C(OC(C)=O)C1OC(C)=O` (stereo unspecified), the survivor count (T/C endpoint: mean survival time, dose: 200.0 mg/kg/injection, schedule: Q01DX005 (ip), vehicle: distilled water + Tween-80) is given as 1 of 6.

On to `CCCCC1(C(C)CC(C)(C)C)NC(C)(C)CC(C)O1` (stereo unspecified), for which the survivor count is listed as 6 of 6 (T/C endpoint: mean survival time, dose: 200.0 mg/kg/injection, schedule: Q04DX003 (ip), vehicle: saline with Tween-80) and 2 of 6 under setting [10].

These data come from PubChem BioAssay AID256 (DTP/NCI, 2004).
